Experimental data taken from article PMC10368747, “Zinc-finger BED domains drive the formation of the active Hermes transpososome by asymmetric DNA binding”.
Weaker means in comparison with the reference protein, sequence or condition of that experiment. Where a protein sequence is shown, tags need not be part of it. Construct, isoform or probe ends are uncertain for at least one entry. At least one verdict rests on a figure or table, not on a statement of the authors.

Target: T1, Hermes BED domain (Musca domestica) (UniProt Q25442)
T1 sequence (looked up): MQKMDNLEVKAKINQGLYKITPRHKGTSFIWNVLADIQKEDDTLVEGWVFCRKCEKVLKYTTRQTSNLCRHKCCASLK
Test: SEC
Conditions: recombinant protein, residues 1-78, protein details: untagged

## CAACAAGCCACAGGCAA (double strand) [RE11-27]
No stable complex, similar to ran17
  binding result: binds more weakly

## CAACAAGCGTTTTATTT (double strand) [LE11-27mutC]
weak, comparable to ran17
  binding result: binds more weakly

## CAACAAGTCACAGGCAA (double strand) [RE11-27T]
No stable complex
  binding result: binds more weakly

## CGCGATGAGTTCTCGAC (double strand) [ran17]
label: 5'-6FAM top strand (EMSA)
  binding result: binds more weakly

## CGGCAAGTGGCGCATTT (double strand) [LE11-27mut-5'3'G (5'3'GC)]
AT-rich region after AAGT removed
  binding result: binds more weakly

## CGGCAAGTGTTTTATTT (double strand) [LE11-27mut-5'G (5'GC)]
3' AT-rich region retained
  binding result: binds
